The subject of this assay is Candida albicans. As to the kind of experiment: Minimum inhibitory concentration (MIC) testing, diffusion disc assay. In kind it is cell-based. The following applies: diffusion paper disc, overnight at 30° C., average of three experiments, read-out: Inhibition of Candida albicans (MIC). The method, then: Minimum inhibitory concentration (MIC) testing was determined for nystatin ethanol amide along with comparative antifungal agents.
Nystatin (Solid) and amphotericin were dissolved in DMF in 1 mg/mL. Econazole nitrate and Nystatin ethanol amide (salt) were dissolved in PBS to achieve 1 mg/mL.
Antibiotic medium 19 was sterilized in autoclave, after sterilization when the temperature lowered to 45° C. and 1 mL from spore suspension was added. 8 mL from this mixture dispensed to each petri dish.
On each dish 6 sterile diffusion paper disc were placed, 10 μL from each antibiotic were applied in 10, 15, 20, 25, 30, 35 μg/mL concentrations. Where MIC concentrations were below 10, lower concentrations were used: 2, 5, 7.5 μg/mL
The petri dishes were incubated overnight at 30° C. The MIC were determined as the lower concentration that inhibition could be visualized.
Observations. In this diffusion disc assay we measured the minimal concentration applied by each compound needed to inhibit the growth of C. albicans and A. niger. […] Amphotericin B inhibit the growth of C. albicans (16 μg/mL) similarly to Nystatin and Nystatin water soluble.

≈ marks a conversion by molar mass, not a printed value.

Take `C[C@@H]1[C@H](O)[C@@H](C)/C=C/C=C/C=C/C=C/C=C/C=C/C=C/[C@H](O[C@@H]2O[C@H](C)[C@@H](O)[C@H](N)[C@@H]2O)C[C@@H]2O[C@](O)(C[C@@H](O)C[C@@H](O)[C@H](O)CC[C@@H](O)C[C@@H](O)CC(=O)O[C@H]1C)C[C@H](O)[C@H]2C(=O)O` [Amphotericin, amphotericin B]: the MIC came out at 16 µg/mL (≈ 17.3 µM).

The values above are taken from US20220096511A1, “ANTIFUNGAL AGENTS WITH IMPROVED WATER SOLUBILITY” (priority 2019, published 2022).
